Some of these results come from one statement about several compounds together.
Biological target: T1, BRD4 BD2 (Homo sapiens, UniProt O60885, Y97A)
T1 construct: BRD4 (1-477) (Y97A) and (Y390A); made in house; host or cells: E. coli (pET15b vector)
Assay: BRD4 BD2 TR-FRET competition assay
Assay type: binding
Settings: for fold selective for BRD4 BD2 over BRD4 BD1: derived from the log unit selectivity; for selectivity for BRD4 BD2 over BRD4 BD1 (BRD4 BD2 pIC50 - BRD4 BD1 pIC50): in at least one of the TR-FRET assays

Row | SMILES | fold selective for BRD4 BD2 over BRD4 BD1 | selectivity for BRD4 BD2 over BRD4 BD1 (BRD4 BD2 pIC50 - BRD4 BD1 pIC50) [log unit]
1 | CNC(=O)c1cc(C(=O)NC2CC3(CC(N)C3)C2)cn(Cc2cccc3[nH]ccc23)c1=O (centres unmarked) [Example 221, 1-((1H-Indol-4-yl)methyl)-N5-(6-aminospiro[3.3]heptan-2-yl)-N3-methyl-2-oxo-1,2-dihydropyridine-3,5-dicarboxamide] | at least 100 fold | ≥ 2
2 | CNC(=O)c1cc(C(=O)N[C@@H]2C[C@H]2C)cn(Cc2cccc(C)c2F)c1=O (racemic) [Example 215, (+/−)-1-(2-Fluoro-3-methylbenzyl)-N3-methyl-N5-((trans)-2-methylcyclopropyl)-2-oxo-1,2-dihydropyridine-3,5-dicarboxamide] | at least 100 fold | ≥ 2
3 | CNC(=O)c1cc(C(=O)NC2CC2)cn(Cc2cccc3c2CCCN3)c1=O [Example 228, N5-Cyclopropyl-N3-methyl-2-oxo-1-((1,2,3,4-tetrahydroquinolin-5-yl)methyl)-1,2-dihydropyridine-3,5-dicarboxamide] | at least 100 fold | ≥ 2
4 | CNC(=O)c1cc(C(=O)N[C@H]2C[C@@H]2CO)cn(Cc2cc(C)ccc2F)c1=O (relative stereo) [Example 229, 1-(2-Fluoro-5-methylbenzyl)-N5-((1S*,2S*)-2-(hydroxymethyl)cyclopropyl)-N3-methyl-2-oxo-1,2-dihydropyridine-3,5-dicarboxamide] | at least 100 fold | ≥ 2
